No constants are given. Whether binding was seen depends on the method and setting. Binding seen in cells or lysates may run through a third protein.
Biological target: CyPet-Ubc12 (UniProt P61081)
Assay: FRET or BRET

Protein sequences, listed by entry. Tags and fused reporters are not part of them.
UniProt P61081: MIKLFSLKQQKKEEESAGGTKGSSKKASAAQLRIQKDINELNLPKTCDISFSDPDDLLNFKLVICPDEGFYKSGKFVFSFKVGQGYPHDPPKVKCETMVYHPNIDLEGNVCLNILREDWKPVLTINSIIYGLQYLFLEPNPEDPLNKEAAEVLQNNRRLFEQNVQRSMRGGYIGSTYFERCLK
UniProt O75925: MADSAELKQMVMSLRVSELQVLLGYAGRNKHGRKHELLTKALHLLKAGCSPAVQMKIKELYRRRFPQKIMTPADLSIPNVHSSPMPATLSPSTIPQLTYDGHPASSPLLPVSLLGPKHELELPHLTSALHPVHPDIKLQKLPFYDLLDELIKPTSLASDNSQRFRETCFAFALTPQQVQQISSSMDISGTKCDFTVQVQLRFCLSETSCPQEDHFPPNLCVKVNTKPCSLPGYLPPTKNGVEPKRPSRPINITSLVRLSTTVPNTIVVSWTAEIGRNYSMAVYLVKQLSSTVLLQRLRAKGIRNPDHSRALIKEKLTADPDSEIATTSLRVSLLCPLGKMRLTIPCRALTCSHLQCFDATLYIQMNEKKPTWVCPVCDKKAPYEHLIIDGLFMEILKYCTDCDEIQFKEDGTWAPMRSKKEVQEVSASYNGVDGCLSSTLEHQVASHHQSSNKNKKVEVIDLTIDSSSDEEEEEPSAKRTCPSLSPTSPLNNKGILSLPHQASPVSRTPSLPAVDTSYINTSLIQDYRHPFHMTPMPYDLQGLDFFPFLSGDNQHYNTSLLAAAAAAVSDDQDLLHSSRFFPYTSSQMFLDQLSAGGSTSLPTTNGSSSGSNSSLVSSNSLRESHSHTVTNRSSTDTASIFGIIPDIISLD

YPet-PIAS1 (from UniProt O75925 1-651) (enzyme)
binding: no binding
